Construct, isoform or probe ends are uncertain for at least one entry. For some of these results: At least one verdict was read from the data and is not stated in words by the source.
Experiments:
[1] = biological target: DNA polymerase I Klenow Fragment (Pol) D424A (UniProt P00582); assay: single-molecule FRET; details: dT-C6-amino linkers at labelled dT, single-molecule confocal FRET in solution, about 100 pM labelled species, Pol titrated (1 nM for binary complex), recombinant protein, protein details: N-terminal His6
[2] = biological target: DNA polymerase I Klenow Fragment (Pol) D424A (UniProt P00582); assay: quenchable single-molecule FRET; details: 3 nM Pol, reduced quenching on binding; dT-C6-amino linkers at labelled dT; single-molecule confocal FRET in solution; about 100 pM labelled species, Pol titrated (1 nM for binary complex); recombinant protein; protein details: N-terminal His6
[3] = biological target: Klenow Fragment D424A C907S/K550C Cy3B (UniProt P00582); assay: single-molecule FRET (protein-DNA); details: 100 pM labelled Pol, binary complex detected; dT-C6-amino linker at labelled dT; single-molecule confocal FRET in solution; about 100 pM labelled species, Pol titrated (1 nM for binary complex); recombinant protein; protein details: N-terminal His6, Cy3B on K550C; label: acceptor (Atto647N) at varied positions
[4] = biological target: Klenow Fragment D424A, C907+ Cy3B (UniProt P00582); assay: single-molecule FRET (protein-DNA); details: 100 pM labelled Pol, binary complex detected; dT-C6-amino linker at labelled dT; single-molecule confocal FRET in solution; about 100 pM labelled species, Pol titrated (1 nM for binary complex); recombinant protein; protein details: N-terminal His6, Cy3B on C907; label: acceptor (Atto647N) at varied positions
[5] = biological target: Klenow Fragment D424A C907S/L744C Cy3B (UniProt P00582); assay: single-molecule FRET (protein-DNA); details: 100 pM labelled Pol, binary complex detected; dT-C6-amino linker at labelled dT; single-molecule confocal FRET in solution; about 100 pM labelled species, Pol titrated (1 nM for binary complex); recombinant protein; protein details: N-terminal His6, Cy3B on L744C; label: acceptor (Atto647N) at varied positions
[6] = biological target: DNA polymerase I Klenow Fragment (Pol) D424A (UniProt P00582); assay: single-molecule FRET titration; details: KD1, Pol-DNA binary complex; dT-C6-amino linkers at labelled dT; single-molecule confocal FRET in solution; about 100 pM labelled species, Pol titrated (1 nM for binary complex); recombinant protein; protein details: N-terminal His6

CCACGAAGCAGGCTCTACTCTCTAGGGATGTATGGTAATGGGACGAAGAATGAGG / CCTCATTCTTCGTCCCATTACCATACATCC / TAGAGAGTAGAGCCTGCTTCGTGG [gapped DNA T(-12)T(+8)]
binding result ([1]; large FRET change on Pol binding in vitro, label: Cy3B and/or Atto647N at T(-12) and T(+8)): binds

CCACGAAGCAGGCTCTACTCTCTAGGGATGTATGGTAATGGGACGAAGAATGAGG / CCTCATTCTTCGTCCCATTACCATACATCC / TAGAGAGTAGAGCCTGCTTCGTGG [gapped DNA T(+1)B(+4)]
binding result [2]: binds

CCACGAAGCAGGCTCTACTCTCTAGGGATGTATGGTAATGGGACGAAGAATGAGG / CCTCATTCTTCGTCCCATTACCATACATCC / TAGAGAGTAGAGCCTGCTTCGTGG [1-nt gapped DNA substrate, acceptor only]
binding result [3]: binds | binding result [4]: binds | binding result [5]: binds

CCACGAAGCAGGCTCTACTCTCTAGGGATGTATGGTAATGGGACGAAGAATGAGG / CCTCATTCTTCGTCCCATTACCATACATCC / TAGAGAGTAGAGCCTGCTTCGTGG [gapped DNA T(-18)T(+15)]
binding result ([1]; binary and high-FRET (Pol)2-DNA complexes in vitro, label: Cy3B and/or Atto647N at T(-18) and T(+15)): binds

CCACGAAGCAGGCTCTACTCTCTAGGGATGTATGGTAATGGGACGAAGAATGAGG / CCTCATTCTTCGTCCCATTACCATACATCC / TAGAGAGTAGAGCCTGCTTCGTGG [1-nt gapped DNA substrate]
Kd [6]: 0.36 nM
